Our source for the binding signal values is publication PMC7819943, “Rice protein-binding microarrays: a tool to detect cis-acting elements near promoter regions in rice”.

By UniProt entry, the sequences of proteins in these tests, tags left out.
UniProt Q0JBA9, entry or part of it: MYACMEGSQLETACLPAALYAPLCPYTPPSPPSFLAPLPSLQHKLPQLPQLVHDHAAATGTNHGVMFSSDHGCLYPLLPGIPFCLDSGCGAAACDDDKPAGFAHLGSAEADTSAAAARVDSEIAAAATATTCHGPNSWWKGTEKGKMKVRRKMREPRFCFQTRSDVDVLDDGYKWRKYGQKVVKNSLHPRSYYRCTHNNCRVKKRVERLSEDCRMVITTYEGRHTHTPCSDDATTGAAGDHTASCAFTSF

The list shows a part of the results.

For this experiment, the target named is OsWRKY34 (Oryza sativa, UniProt Q0JBA9 1-250). The experiment in a line: protein-binding microarray (RPBM); PBS, 2% BSA, 51.3 ng/ul salmon testes DNA, 50 uM zinc acetate, 200 nM TF, 25 C, 1 h; high values mean tight binding. The conditions noted are these: protein: recombinant; tags: N-terminal polyhistidine and DsRed monomer fusion (pET32a); label: CyDye5-dUTP incorporated in the synthesized complementary strand; 3' TTTTT single-stranded linker to array surface; dsDNA, one strand shown. The gist of the method: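 For the binding signal, per-feature fluorescence intensity was read in arbitrary units on an Axon 4000B scanner. Before scanning, a 2% BSA-blocked custom Agilent array made double-stranded with Cy5-dUTP was washed after 1 h at 25 °C with 200 nM protein and 50 µM zinc acetate. The proteins were Ni–NTA-purified transcription factors with N-terminal polyhistidine and DsRed fusions, expressed in E. coli BL21-CodonPlus.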
For “CCCCAAGCCTTTATTCCCTCCCATTTCTCCCGCTCACTTTCGGAGTCACCTAGTGCAG”, the binding signal is 8190 fluorescence intensity (a.u.). As to “CCTATTCTAACACTGACGGGTGGGTCTCACAGGGTGACTCCGGAGTCACCTAGTGCAG”, the binding signal is 16900 fluorescence intensity (a.u.). Turning to “ACGCATTTCTCGTCTTCACAAACGTACGTACGGTCTCACTCGGAGTCACCTAGTGCAG”, the binding signal was 8090 fluorescence intensity (a.u.). Then “GACTCATTATTATCTGGCTAGTTCATTTTCATGTTATTTTCGGAGTCACCTAGTGCAG”, with 14900 fluorescence intensity (a.u.); and “ACTTGCAGTTCCAGGTTATTGAGGTCAGACGGGTCGTTGACGGAGTCACCTAGTGCAG”, with 8800 fluorescence intensity (a.u.); and “CCACTGCTGATGCTCCTCTTCTTGCTCGGTTTCTTTCTCCCGGAGTCACCTAGTGCAG”, with 8350 fluorescence intensity (a.u.).

For the sequence “CCATTTTTGTTAGACGCGCTAGTGGAACATCCATCTTTCTCGGAGTCACCTAGTGCAG”, the binding signal was 8210 fluorescence intensity (a.u.). Then “GCCGCGCGCTCGTCCACCGCTGCTGCCACCCCGCTCCACTCGGAGTCACCTAGTGCAG”, with 10700 fluorescence intensity (a.u.).

With “CTCGCTTCCGCCACCAACCCCTTCGCGAACCTTCTAGAACCGGAGTCACCTAGTGCAG”, the binding signal was 10200 fluorescence intensity (a.u.). Turning to “TTAATTACTTCCTTTTCTTTTCTTTTCTTTTCCTTTTTTTCGGAGTCACCTAGTGCAG”, the binding signal is 8110 fluorescence intensity (a.u.). On to “GTTCTGATGTCCACCGTGCAGGTTCATATGCTTCTGCCAACGGAGTCACCTAGTGCAG”, for which the binding signal was 8410 fluorescence intensity (a.u.). As to “TTAATATTTTATGTGTGACTTGTCTTTTTAATTTTTTTATCGGAGTCACCTAGTGCAG”, the binding signal was 8700 fluorescence intensity (a.u.). Then “GTGTTCTTGTGTGTGTGTGTGTGTGTGTGTGTGTGTGTGTCGGAGTCACCTAGTGCAG”, with 9670 fluorescence intensity (a.u.); and “CCCAACTGTTCCACTTGACGCATCGATCGATATCTGAATTCGGAGTCACCTAGTGCAG”, with 9740 fluorescence intensity (a.u.); and “CACTTTGTATATTCTCGAGTGGATTTGCAATATATTGGTGCGGAGTCACCTAGTGCAG”, with 8740 fluorescence intensity (a.u.). “CTTTGTGCTCTCTTGGTCTCTCTCTTCTACTTGCTCTCCACGGAGTCACCTAGTGCAG”: the binding signal is 12200 fluorescence intensity (a.u.).

“AAATGACCGAGCTACACTCTCTTCTTGCCAAGGCTATCATCGGAGTCACCTAGTGCAG”: the binding signal is 8770 fluorescence intensity (a.u.).

Turning to “GCAACACGGTAATTAAATTTACTCTCGATGGGCGCACGTTCGGAGTCACCTAGTGCAG”, the binding signal was 8110 fluorescence intensity (a.u.). Then “TCGTCTACATCTTCATTCTGTTTAGATTCTTCTTGAACTGCGGAGTCACCTAGTGCAG”, with 8410 fluorescence intensity (a.u.); and “AAGCAACCCCACTTACACCGTGTTAAGATCCTAAATTTTTCGGAGTCACCTAGTGCAG”, with 10100 fluorescence intensity (a.u.); and “ATTTTTCCATCACATGAAAATTTTCCTACACATAAACTTTCGGAGTCACCTAGTGCAG”, with 9380 fluorescence intensity (a.u.). As to “AACATCTAAGCACTCATATGATAACCCATTTACTGACTTACGGAGTCACCTAGTGCAG”, the binding signal is 8930 fluorescence intensity (a.u.). Take “ATCCTCTCTCATCATTTTTTCCCTTTTTCTCCTTCAACCACGGAGTCACCTAGTGCAG”: the binding signal was 10500 fluorescence intensity (a.u.).

For “CTTCACGCGACGTGCTGCTCCGCTCCGCTCCGTCGTCAAGCGGAGTCACCTAGTGCAG”, the binding signal was 8230 fluorescence intensity (a.u.).

Turning to “CTTGCCCGCCGCCATCGCCATGCCACTGGGCGTACCTGCCCGGAGTCACCTAGTGCAG”, the binding signal was 10400 fluorescence intensity (a.u.). For “TTGTCGCTCCTCATCCCCGTCACCGAACTGTTGCCGCAACCGGAGTCACCTAGTGCAG”, the binding signal was 9150 fluorescence intensity (a.u.). Then “GCAGTTGTGCCCTTAAATACCCACACGCCTCTCTTTCTTCCGGAGTCACCTAGTGCAG”, with 10400 fluorescence intensity (a.u.). On to “CTCCTCGTCTTCTTCTTCCACCTCGCAAATCCGATCAACACGGAGTCACCTAGTGCAG”, for which the binding signal was 9850 fluorescence intensity (a.u.).

“TGCCAGTTAACCTTATACTATATGCAATCGGGGAATGATGCGGAGTCACCTAGTGCAG”: the binding signal is 8500 fluorescence intensity (a.u.). With “TTAGGTGTTTTGTAGTAGTGTAATGGGGCATATTCGTGGGCGGAGTCACCTAGTGCAG”, the binding signal is 8270 fluorescence intensity (a.u.). Then “TTCTTTTTTTCTTTTTGTGTGTGTCTATTGCCGTCCTTGACGGAGTCACCTAGTGCAG”, with 10700 fluorescence intensity (a.u.). Then “GAGTTTATTGGGATAGGATACGTCTATGTGCATTTGCATACGGAGTCACCTAGTGCAG”, with 8060 fluorescence intensity (a.u.). For the sequence “ACCACTCATCAGCTCGCTCTCGCCTATCTTCTCCTATAATCGGAGTCACCTAGTGCAG”, the binding signal was 8250 fluorescence intensity (a.u.). Then “CACTCCTGCTCGACTCCTTGGTGACGTTTCTGTTTCTGTTCGGAGTCACCTAGTGCAG”, with 12200 fluorescence intensity (a.u.). Turning to “GGGGCCCACCCAGCAGCCACTCATTTATTTTCCAGTTCCGCGGAGTCACCTAGTGCAG”, the binding signal was 8090 fluorescence intensity (a.u.). Then “TTCCTGCAGCCGGACACTCGTTGCGCGAATCTTGACTGCTCGGAGTCACCTAGTGCAG”, with 8120 fluorescence intensity (a.u.); and “CCCCGATCCCCACCTCGTCTCCACCGCACGAGCAGCAGCACGGAGTCACCTAGTGCAG”, with 9270 fluorescence intensity (a.u.). Then “GCTTATACCTATATACACATTACATTTTGATGGCTTATCTCGGAGTCACCTAGTGCAG”, with 10700 fluorescence intensity (a.u.).

“CGCCGCCGCCTCGGTCCTCCCAATGCCGCCCACCGAGTCGCGGAGTCACCTAGTGCAG”: the binding signal is 8360 fluorescence intensity (a.u.). Then “TCATGTAACTTTTCACCTTTTCAGGACCTTTTTTTTTCCACGGAGTCACCTAGTGCAG”, with 8120 fluorescence intensity (a.u.). Then “AATCGACCAGACCAAACCAAACCCAAACCAAACCCAACCCCGGAGTCACCTAGTGCAG”, with 8900 fluorescence intensity (a.u.); and “CCTATCTCTCTCTTTCTCACTTTTCTCCTTGTTTTCAAAACGGAGTCACCTAGTGCAG”, with 8980 fluorescence intensity (a.u.).
